According to patent publication US9815815B2, “Non-selective kinase inhibitors” (GILEAD SCIENCES, INC., priority 2013, dated 2017):
Like-named read-outs stand apart in the source and are kept apart here.

Columns and labels:
[1] = test system: PDGFAA stimulated AKT phosphorylation; assay: In cell Western (ICW), PDGFAA stimulated AKT phosphorylation in human fetal lung fibroblasts; assay type: cell-based; conditions: for IC50: Homo sapiens, Fibroblast
Experimental: In cell Western (ICW). […] HLFs were maintained in subculture at no more than 6 passages in DMEM with 5% FBS and 4 mM Glutamax at 37° C., 5% CO2. HLFs were plated and grown to 70-80% confluence in 96 well plates then serum-starved for 48 hours. […] After washing, the signal was quantified using an Odyssey Infrared Imaging System (LI-COR). Phosphoprotein signal (800 nm) was normalized to total protein signal (700 nm) acquired from each well and experimental duplicates on same plate were averaged and reported.

[2] = test system: PDGFBB stimulated AKT phosphorylation; assay: In cell Western (ICW), PDGFBB stimulated AKT phosphorylation in human fetal lung fibroblasts; assay type: cell-based; conditions: Fibroblast, HLFs, read-out: IC50, PDGFBB stimulated AKT phosphorylation at Ser473
Experimental: In cell Western (ICW). […] HLFs were maintained in subculture at no more than 6 passages in DMEM with 5% FBS and 4 mM Glutamax at 37° C., 5% CO2. HLFs were plated and grown to 70-80% confluence in 96 well plates then serum-starved for 48 hours. […] Antibodies were detected using IRDye 680LT goat anti-mouse IgG and IRDye 800W goat a-rabbit IgG conjugated antibodies. After washing, the signal was quantified using an Odyssey Infrared Imaging System (LI-COR). Phosphoprotein signal (800 nm) was normalized to total protein signal (700 nm) acquired from each well and experimental duplicates on same plate were averaged and reported.

In the case of `Cc1ccc(NC(=O)c2ccc(CN3CCN(C)CC3)cc2)cc1Nc1nccc(-c2cccnc2)n1` [Imatinib], the IC50 ([1]; read-out: IC50, PDGFAA stimulation of pAKT(S473)) is reported as 300 to 600 nM, the IC50 ([1]; read-out: IC50, PDGFAA stimulation of pAKT(T308)) is reported as 300 to 600 nM and the “IC50 for PDGFAA stimulated phosphorylation of AKT, PK10453 vs imatinib” value ([1]; comparison in words) is reported as “not significantly different”. For the same compound, the IC50 [2] was 1800 nM.
